# The list shows a part of the results.
# B1: CRT-1 (Homo sapiens), P27797 (protein)
# chain: MLLSVPLLLGLLGLAVAEPAVYFKEQFLDGDGWTSRWIESKHKSDFGKFVLSSGKFYGDEEKDKGLQTSQDARFYALSASFEPFSNKGQTLVVQFTVKHEQNIDCGGGYVKLFPNSLDQTDMHGDSEYNIMFGPDICGPGTKKVHVIFNYKGKNVLINKDIRCKDDEFTHLYTLIVRPDNTYEVKIDNSQVESGSLEDDWDFLPPKKIKDPDASKPEDWDERAKIDDPTDSKPEDWDKPEHIPDPDAKKPEDWDEEMDGEWEPPVIQNPEYKGEWKPRQIDNPDYKGTWIHPEIDNPEYSPDPSIYAYDNFGVLGLDLWQVKSGTIFDNFLITNDEAYAEEFGNETWGVTKAAEKQMKDKQDEEQRLKEEEEDKKRKEEEEAEDKEDDEDKDEDEEDEEDKEEDEEEDVPGQAKDEL
# Columns and labels:
# Experiment in all cases: glycan array binding signal (z-score within array); higher = stronger binding
# Settings in all cases: glycan notation: IUPAC condensed, linker removed
# [1] = target: Gal(b1-4)GlcNAc(b1-3)Gal(b1-4)[Fuc(a1-3)]GlcNAc(b1-3)Gal(b1-4)[Fuc(a1-3)]GlcNAc
# Outline: (§1)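 The binding signal is a Z-score computed within each array and averaged over linkers. Arrays of the same protein sequence at different concentrations or buffers were also averaged together. Data originate from 3228 arrays in the Consortium for Functional Glycomics database, kept only where the protein sequence was available.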
# [2] = target: Gal(b1-4)GlcNAc(b1-3)GalNAc
# Outline: as §1
# [3] = target: Gal(b1-4)GlcNAc(b1-3)[Fuc(a1-3)GlcNAc(b1-6)]Gal(b1-4)Glc
# Outline: as §1
# [4] = target: Gal(b1-4)GlcNAc(b1-3)[Gal(b1-4)GlcNAc(b1-6)]Gal(b1-4)GlcNAc
# Outline: as §1
# [5] = target: Gal(b1-4)GlcNAc(b1-3)[Gal(b1-4)GlcNAc(b1-6)]GalNAc
# Outline: as §1
# [6] = target: Gal(b1-4)GlcNAc(b1-3)[GlcNAc(b1-6)]Gal(b1-4)GlcNAc
# Outline: as §1
# [7] = target: Gal(b1-4)GlcNAc(b1-6)Gal(b1-4)GlcNAc
# Outline: as §1
# [8] = target: Gal(b1-4)GlcNAc(b1-6)GalNAc
# Outline: as §1
# [9] = target: Gal(b1-4)GlcNAc(b1-6)[Gal(b1-3)]GalNAc
# Outline: as §1
# [10] = target: Gal(b1-4)GlcNAc(b1-6)[Gal(b1-4)GlcNAc(b1-3)]GalNAc
# Outline: as §1
# Gal(b1-4)GlcNAc6P = target: Gal(b1-4)GlcNAc6P
# Outline: as §1
# Gal(b1-6)Gal = target: Gal(b1-6)Gal
# Outline: as §1
# Gal3S(b1-3)GalNAc = target: Gal3S(b1-3)GalNAc
# Outline: as §1
# Gal3S(b1-3)GlcNAc = target: Gal3S(b1-3)GlcNAc
# Outline: as §1
# [11] = target: Gal3S(b1-3)[Fuc(a1-4)]GlcNAc
# Outline: as §1
# Gal3S(b1-4)Glc = target: Gal3S(b1-4)Glc
# Outline: as §1
# Gal3S(b1-4)Glc6S = target: Gal3S(b1-4)Glc6S
# Outline: as §1
# Gal3S(b1-4)GlcNAc = target: Gal3S(b1-4)GlcNAc
# Outline: as §1
# Gal3S(b1-4)GlcNAc6S = target: Gal3S(b1-4)GlcNAc6S
# Outline: as §1
# [12] = target: Gal3S(b1-4)[Fuc(a1-3)]Glc
# Outline: as §1
# [13] = target: Gal3S(b1-4)[Fuc(a1-3)]Glc6S
# Outline: as §1
# [14] = target: Gal3S(b1-4)[Fuc(a1-3)]GlcNAc
# Outline: as §1
# [15] = target: Gal3S(b1-4)[Fuc(a1-3)]GlcNAc6S
# Outline: as §1
# Gal3S4S(b1-4)GlcNAc = target: Gal3S4S(b1-4)GlcNAc
# Outline: as §1
# Gal3S6S(b1-4)GlcNAc = target: Gal3S6S(b1-4)GlcNAc
# Outline: as §1
# Gal3S6S(b1-4)GlcNAc6S = target: Gal3S6S(b1-4)GlcNAc6S
# Outline: as §1
# Gal4S(b1-4)GlcNAc = target: Gal4S(b1-4)GlcNAc
# Outline: as §1
# Gal4S6S(b1-4)GlcNAc = target: Gal4S6S(b1-4)GlcNAc
# Outline: as §1
# Gal6P(b1-4)GlcNAc = target: Gal6P(b1-4)GlcNAc
# Outline: as §1
# Gal6S(b1-3)GlcNAc = target: Gal6S(b1-3)GlcNAc
# Outline: as §1
# Gal6S(b1-3)GlcNAc6S = target: Gal6S(b1-3)GlcNAc6S
# Outline: as §1
# Gal6S(b1-4)Glc = target: Gal6S(b1-4)Glc
# Outline: as §1
# Gal6S(b1-4)Glc6S = target: Gal6S(b1-4)Glc6S
# Outline: as §1
# Gal6S(b1-4)GlcNAc = target: Gal6S(b1-4)GlcNAc
# Outline: as §1
# Gal6S(b1-4)GlcNAc6S = target: Gal6S(b1-4)GlcNAc6S
# Outline: as §1
# GalNAc(a1-3)Gal = target: GalNAc(a1-3)Gal
# Outline: as §1
# GalNAc(a1-3)GalNAc = target: GalNAc(a1-3)GalNAc
# Outline: as §1
binder,measurement,setting,value
B1,glycan array binding signal (z-score),[1],-0.134
same,glycan array binding signal (z-score),[2],0.162
same,glycan array binding signal (z-score),[3],-0.465
same,glycan array binding signal (z-score),[4],0.487
same,glycan array binding signal (z-score),[5],-0.095
same,glycan array binding signal (z-score),[6],-0.718
same,glycan array binding signal (z-score),[7],0.808
same,glycan array binding signal (z-score),[8],0.085
same,glycan array binding signal (z-score),[9],-0.381
same,glycan array binding signal (z-score),[10],-0.338
same,glycan array binding signal (z-score),Gal(b1-4)GlcNAc6P,-0.031
same,glycan array binding signal (z-score),Gal(b1-6)Gal,0.008
same,glycan array binding signal (z-score),Gal3S(b1-3)GalNAc,-0.188
same,glycan array binding signal (z-score),Gal3S(b1-3)GlcNAc,-0.208
same,glycan array binding signal (z-score),[11],-0.085
same,glycan array binding signal (z-score),Gal3S(b1-4)Glc,-0.53
same,glycan array binding signal (z-score),Gal3S(b1-4)Glc6S,-0.054
same,glycan array binding signal (z-score),Gal3S(b1-4)GlcNAc,0.11
same,glycan array binding signal (z-score),Gal3S(b1-4)GlcNAc6S,-0.498
same,glycan array binding signal (z-score),[12],-0.4
same,glycan array binding signal (z-score),[13],0.706
same,glycan array binding signal (z-score),[14],0.503
same,glycan array binding signal (z-score),[15],0.148
same,glycan array binding signal (z-score),Gal3S4S(b1-4)GlcNAc,-0.367
same,glycan array binding signal (z-score),Gal3S6S(b1-4)GlcNAc,0.514
same,glycan array binding signal (z-score),Gal3S6S(b1-4)GlcNAc6S,-0.048
same,glycan array binding signal (z-score),Gal4S(b1-4)GlcNAc,-0.404
same,glycan array binding signal (z-score),Gal4S6S(b1-4)GlcNAc,-0.98
same,glycan array binding signal (z-score),Gal6P(b1-4)GlcNAc,-0.578
same,glycan array binding signal (z-score),Gal6S(b1-3)GlcNAc,-0.236
same,glycan array binding signal (z-score),Gal6S(b1-3)GlcNAc6S,0.965
same,glycan array binding signal (z-score),Gal6S(b1-4)Glc,-0.297
same,glycan array binding signal (z-score),Gal6S(b1-4)Glc6S,-0.096
same,glycan array binding signal (z-score),Gal6S(b1-4)GlcNAc,-0.673
same,glycan array binding signal (z-score),Gal6S(b1-4)GlcNAc6S,1.47
same,glycan array binding signal (z-score),GalNAc(a1-3)Gal,0.04
same,glycan array binding signal (z-score),GalNAc(a1-3)GalNAc,0.075

# Random excerpt: two records from the list, in no set order.
binder,measurement,setting,value
B1,glycan array binding signal (z-score),[1],-0.134
same,glycan array binding signal (z-score),Gal3S(b1-4)GlcNAc6S,-0.498

# — the supplement of paper PMC8728848
